A short description of the data set: general procedure: Fmoc solid-phase peptide synthesis; Tenta-Gel resin (0.22 mmol/g). Conditions: whole synthesis, analytical HPLC and capillary electrophoresis, scale of the general procedure 1 g resin, MPS 1-5 μmole per well, cyclic, sequence written open.

Experimental findings from US6841533B1 (Peptor Limited, priority 1995, dated 2005) are described below.

Consider “Trp-Arg-Lys-(D)Arg-Phe-AlaC3-Leu-Arg-(D)Tyr-AlaN3-NH2”, for which the “final HPLC purity” value was 100% purity.
